{
  "source": "the supplement of paper PMC12873370",
  "key": {"[1]": {"tested_on": "MEPP (mouse ovarian epithelium Trp53/Pten KO)", "assay": "cell viability relative to untreated (fraction); higher = less growth inhibition", "details": "5 µM; 3 days"}, "[2]": {"tested_on": "PREPP (mouse prostate epithelium Trp53/Pten KO)", "assay": "cell viability relative to untreated (fraction); higher = less growth inhibition", "details": "5 µM; 3 days"}},
  "note": "Values joined by “and” are separate entries in the source; they are usually repeats but may differ in a detail not shown here. Identical values can stand only once. This is one part of the list. Many values rest on one well or one pass, so single values are uncertain.",
  "data": [
    {"smiles": "C/C=C(\\C)C(=O)O", "values": [
      {"measurement": "cell viability", "setting": "[1]", "value": 0.975},
      {"measurement": "cell viability", "setting": "[2]", "value": 1.04}
    ]},
    {"smiles": "COc1cccc(CC(=O)O)c1", "values": [
      {"measurement": "cell viability", "setting": "[1]", "value": 0.959},
      {"measurement": "cell viability", "setting": "[2]", "value": 0.892}
    ]},
    {"smiles": "CN1[C@@H](CC(=O)c2ccccc2)CCC[C@H]1C[C@H](O)c1ccccc1", "values": [
      {"measurement": "cell viability", "setting": "[1]", "value": 1.03},
      {"measurement": "cell viability", "setting": "[2]", "value": 0.983}
    ]},
    {"smiles": "N[C@@H](Cc1cc(I)c(Oc2cc(I)c(O)c(I)c2)c(I)c1)C(=O)O", "values": [
      {"measurement": "cell viability", "setting": "[1]", "value": "1.1 and 1.11"},
      {"measurement": "cell viability", "setting": "[2]", "value": "0.903 and 1"}
    ]},
    {"smiles": "O=C(O)/C=C(/CC(=O)O)C(=O)O", "values": [
      {"measurement": "cell viability", "setting": "[1]", "value": 0.865},
      {"measurement": "cell viability", "setting": "[2]", "value": 0.998}
    ]},
    {"smiles": "C/C=C/c1cc(OC)c2c(c1)C(C)C(c1ccc(O)c(OC)c1)O2", "note": "(configuration not stated)", "values": [
      {"measurement": "cell viability", "setting": "[1]", "value": 0.966},
      {"measurement": "cell viability", "setting": "[2]", "value": 1.03}
    ]},
    {"smiles": "O=C(O)C=Cc1ccc(O)cc1", "values": [
      {"measurement": "cell viability", "setting": "[1]", "value": 1.2},
      {"measurement": "cell viability", "setting": "[2]", "value": 0.96}
    ]},
    {"smiles": "O=CC(O)C(O)C(O)CO", "note": "(configuration not stated)", "values": [
      {"measurement": "cell viability", "setting": "[1]", "value": 1.06},
      {"measurement": "cell viability", "setting": "[2]", "value": 0.912}
    ]},
    {"smiles": "Cc1cnc(=O)[nH]c1N", "values": [
      {"measurement": "cell viability", "setting": "[1]", "value": 0.888},
      {"measurement": "cell viability", "setting": "[2]", "value": 1.24}
    ]},
    {"smiles": "Oc1ccc(OCc2ccccc2)cc1", "values": [
      {"measurement": "cell viability", "setting": "[1]", "value": 1.01},
      {"measurement": "cell viability", "setting": "[2]", "value": 0.783}
    ]},
    {"smiles": "C[C@H](N)C(=O)O.N[C@@H](Cc1ccc(O)cc1)C(=O)O", "values": [
      {"measurement": "cell viability", "setting": "[1]", "value": 0.925},
      {"measurement": "cell viability", "setting": "[2]", "value": 0.981}
    ]},
    {"smiles": "C[C@H](O)[C@H](O)[C@H]1CNc2nc(N)[nH]c(=O)c2N1", "values": [
      {"measurement": "cell viability", "setting": "[1]", "value": 0.992},
      {"measurement": "cell viability", "setting": "[2]", "value": 0.95}
    ]},
    {"smiles": "CN(C)CCOC(c1ccccc1)c1ccccc1", "values": [
      {"measurement": "cell viability", "setting": "[1]", "value": 0.947},
      {"measurement": "cell viability", "setting": "[2]", "value": 0.798}
    ]},
    {"smiles": "CO[C@H]1C(=O)[C@]2(C)[C@@H](OC)C[C@H]3OC[C@@]3(OC(C)=O)[C@H]2[C@H](OC(=O)c2ccccc2)[C@]2(O)C[C@H](OC(=O)[C@H](O)[C@@H](NC(=O)OC(C)(C)C)c3ccccc3)C(C)=C1C2(C)C", "values": [
      {"measurement": "cell viability", "setting": "[1]", "value": 0.563},
      {"measurement": "cell viability", "setting": "[2]", "value": 0.636}
    ]},
    {"smiles": "Oc1ccc([C@H]2COc3cc(O)ccc3C2)cc1", "values": [
      {"measurement": "cell viability", "setting": "[1]", "value": 1.34},
      {"measurement": "cell viability", "setting": "[2]", "value": 1.02}
    ]},
    {"smiles": "O=C(O)CCC(=O)Nc1ccc(S(=O)(=O)Nc2nccs2)cc1", "values": [
      {"measurement": "cell viability", "setting": "[1]", "value": 0.881},
      {"measurement": "cell viability", "setting": "[2]", "value": 1.13}
    ]},
    {"smiles": "Cc1ncc(C[n+]2csc(CCOP(=O)(O)OP(=O)(O)O)c2C)c(N)n1", "values": [
      {"measurement": "cell viability", "setting": "[1]", "value": 0.766},
      {"measurement": "cell viability", "setting": "[2]", "value": 0.913}
    ]},
    {"smiles": "COC(=O)N/N=C/c1c[n+]([O-])c2ccccc2[n+]1[O-]", "values": [
      {"measurement": "cell viability", "setting": "[1]", "value": 1.09},
      {"measurement": "cell viability", "setting": "[2]", "value": 0.958}
    ]},
    {"smiles": "O=c1c(O)c(-c2ccc(O)cc2O)oc2cc(O)cc(O)c12", "values": [
      {"measurement": "cell viability", "setting": "[1]", "value": 0.993},
      {"measurement": "cell viability", "setting": "[2]", "value": 0.848}
    ]},
    {"smiles": "C[C@@H]1O[C@@H](OC[C@H]2O[C@@H](Oc3c(-c4ccc(OCCO)c(OCCO)c4)oc4cc(OCCO)cc(O)c4c3=O)[C@H](O)[C@@H](O)[C@@H]2O)[C@H](O)[C@H](O)[C@H]1O", "values": [
      {"measurement": "cell viability", "setting": "[1]", "value": 0.81},
      {"measurement": "cell viability", "setting": "[2]", "value": 0.851}
    ]},
    {"smiles": "C[C@H]1O[C@@H](O[C@H]2CC[C@@]3(C)[C@@H](CC[C@]4(C)[C@@H]3C=C[C@]35OC[C@@]6(CCC(C)(C)C[C@H]63)[C@H](O)C[C@]54C)[C@]2(C)CO)[C@H](O)[C@@H](O[C@@H]2O[C@H](CO)[C@@H](O)[C@H](O)[C@H]2O)[C@H]1O", "values": [
      {"measurement": "cell viability", "setting": "[1]", "value": 0.304},
      {"measurement": "cell viability", "setting": "[2]", "value": 0.538}
    ]},
    {"smiles": "CC(C)CC(=O)C(=O)O", "values": [
      {"measurement": "cell viability", "setting": "[1]", "value": 1.27},
      {"measurement": "cell viability", "setting": "[2]", "value": 0.93}
    ]},
    {"smiles": "O=c1[nH]cc(F)c(=O)[nH]1", "values": [
      {"measurement": "cell viability", "setting": "[1]", "value": 0.751},
      {"measurement": "cell viability", "setting": "[2]", "value": 0.608}
    ]},
    {"smiles": "CC(C)CC(O)C(=O)O", "note": "(configuration not stated)", "values": [
      {"measurement": "cell viability", "setting": "[1]", "value": 0.92},
      {"measurement": "cell viability", "setting": "[2]", "value": 0.991}
    ]},
    {"smiles": "CC(C)CC(N)=O", "values": [
      {"measurement": "cell viability", "setting": "[1]", "value": 1.18},
      {"measurement": "cell viability", "setting": "[2]", "value": 0.836}
    ]},
    {"smiles": "Oc1cc(O)c2c(c1)OC(c1ccc(O)c(O)c1)C(OC1(c3ccc(O)c(O)c3)Oc3cc(O)cc(O)c3C(O)C1O)C2", "note": "(configuration not stated)", "values": [
      {"measurement": "cell viability", "setting": "[1]", "value": 1.08},
      {"measurement": "cell viability", "setting": "[2]", "value": 1.04}
    ]}
  ]
}
